± gives the standard deviation of the averaged measurements. The entries are a selection whose mix differs from that of the whole data set.
Compound: Nc1ncnc2c1ncn2[C@@H]1O[C@H](COP(=O)(O)OP(=O)(O)OP(=O)(O)O)[C@@H](O)[C@H]1O [adenosine triphosphate]
Experiment: NP40-soluble protein abundance relative to vehicle (solubility fold change) (ratio); higher = more soluble protein in presence of ATP
How it was run: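 Eight concentrations, 0.1 to 10 mM, were tested on Jurkat crude lysate for 10 min at room temperature and then 3 min at 37 °C, in three independent experiments. The lysate was solubilised with 0.8% NP40 and benzonase, ultracentrifuged, and the supernatant TMT-labelled for LC-MS/MS. Each value is the fold change against the detergent-processed vehicle in its own replicate, from vsn-normalised intensities.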

Amino acid sequences for entries named in this document (tags omitted). A change or cut given only in a name is not applied to a line headed by its entry.
UniProt Q99442: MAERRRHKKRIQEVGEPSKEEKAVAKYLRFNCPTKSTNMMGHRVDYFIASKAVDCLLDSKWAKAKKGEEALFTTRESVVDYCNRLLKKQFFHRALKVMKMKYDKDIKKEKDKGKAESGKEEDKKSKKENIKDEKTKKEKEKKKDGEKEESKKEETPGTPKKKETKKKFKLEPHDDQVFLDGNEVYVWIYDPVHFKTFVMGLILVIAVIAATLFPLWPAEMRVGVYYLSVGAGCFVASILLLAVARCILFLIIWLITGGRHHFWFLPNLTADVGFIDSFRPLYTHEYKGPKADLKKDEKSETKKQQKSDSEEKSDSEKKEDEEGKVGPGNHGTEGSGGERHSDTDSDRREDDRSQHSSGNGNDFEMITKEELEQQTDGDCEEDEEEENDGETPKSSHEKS
UniProt Q9BY43: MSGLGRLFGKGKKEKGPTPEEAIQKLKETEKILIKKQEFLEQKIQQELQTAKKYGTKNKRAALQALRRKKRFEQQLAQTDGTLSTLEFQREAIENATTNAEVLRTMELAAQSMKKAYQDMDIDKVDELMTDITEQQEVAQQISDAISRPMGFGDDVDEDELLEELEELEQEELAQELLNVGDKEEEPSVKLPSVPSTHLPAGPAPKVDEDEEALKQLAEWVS
UniProt Q9BRG1: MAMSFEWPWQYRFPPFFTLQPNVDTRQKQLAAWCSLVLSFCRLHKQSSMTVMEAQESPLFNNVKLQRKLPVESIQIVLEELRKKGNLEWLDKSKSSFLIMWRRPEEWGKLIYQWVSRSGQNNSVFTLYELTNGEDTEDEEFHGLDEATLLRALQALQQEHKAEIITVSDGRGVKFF
UniProt Q99747: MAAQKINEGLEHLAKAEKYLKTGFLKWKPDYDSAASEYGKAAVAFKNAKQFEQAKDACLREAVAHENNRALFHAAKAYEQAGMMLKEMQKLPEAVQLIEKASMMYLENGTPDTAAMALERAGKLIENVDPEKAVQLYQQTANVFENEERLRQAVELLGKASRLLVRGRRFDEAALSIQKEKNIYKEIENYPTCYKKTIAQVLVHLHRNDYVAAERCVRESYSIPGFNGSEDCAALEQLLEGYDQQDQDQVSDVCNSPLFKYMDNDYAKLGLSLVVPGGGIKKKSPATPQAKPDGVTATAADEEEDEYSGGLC
UniProt Q99871: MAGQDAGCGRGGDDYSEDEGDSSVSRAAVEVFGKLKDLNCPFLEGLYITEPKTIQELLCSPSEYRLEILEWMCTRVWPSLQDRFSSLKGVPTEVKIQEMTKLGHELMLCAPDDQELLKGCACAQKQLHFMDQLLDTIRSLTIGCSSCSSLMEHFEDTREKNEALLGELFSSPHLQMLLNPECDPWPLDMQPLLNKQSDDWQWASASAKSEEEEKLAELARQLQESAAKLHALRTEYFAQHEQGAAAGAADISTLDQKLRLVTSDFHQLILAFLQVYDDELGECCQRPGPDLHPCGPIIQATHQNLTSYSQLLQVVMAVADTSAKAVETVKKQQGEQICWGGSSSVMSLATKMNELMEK
UniProt Q9BX95: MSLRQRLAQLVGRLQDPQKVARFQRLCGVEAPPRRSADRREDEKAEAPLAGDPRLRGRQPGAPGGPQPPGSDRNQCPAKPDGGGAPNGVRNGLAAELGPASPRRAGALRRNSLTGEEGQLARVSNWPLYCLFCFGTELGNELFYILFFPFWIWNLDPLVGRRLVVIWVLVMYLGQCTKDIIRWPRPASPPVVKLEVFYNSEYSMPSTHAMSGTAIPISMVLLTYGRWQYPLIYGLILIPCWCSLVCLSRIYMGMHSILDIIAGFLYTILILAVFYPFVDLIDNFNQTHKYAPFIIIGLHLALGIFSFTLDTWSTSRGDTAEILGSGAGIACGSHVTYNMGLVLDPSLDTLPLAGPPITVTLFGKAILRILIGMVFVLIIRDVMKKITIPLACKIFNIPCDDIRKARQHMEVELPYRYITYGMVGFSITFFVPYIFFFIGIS
UniProt Q9BRF8, whole entry: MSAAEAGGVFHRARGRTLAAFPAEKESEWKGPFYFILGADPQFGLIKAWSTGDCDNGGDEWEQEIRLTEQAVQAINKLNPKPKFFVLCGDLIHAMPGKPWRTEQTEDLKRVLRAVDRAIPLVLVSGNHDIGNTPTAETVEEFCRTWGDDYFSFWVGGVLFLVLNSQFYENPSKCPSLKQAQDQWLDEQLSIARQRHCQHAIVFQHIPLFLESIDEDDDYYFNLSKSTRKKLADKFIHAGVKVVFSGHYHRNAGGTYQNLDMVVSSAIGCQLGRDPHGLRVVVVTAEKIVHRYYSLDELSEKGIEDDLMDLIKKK
UniProt Q9BYM8: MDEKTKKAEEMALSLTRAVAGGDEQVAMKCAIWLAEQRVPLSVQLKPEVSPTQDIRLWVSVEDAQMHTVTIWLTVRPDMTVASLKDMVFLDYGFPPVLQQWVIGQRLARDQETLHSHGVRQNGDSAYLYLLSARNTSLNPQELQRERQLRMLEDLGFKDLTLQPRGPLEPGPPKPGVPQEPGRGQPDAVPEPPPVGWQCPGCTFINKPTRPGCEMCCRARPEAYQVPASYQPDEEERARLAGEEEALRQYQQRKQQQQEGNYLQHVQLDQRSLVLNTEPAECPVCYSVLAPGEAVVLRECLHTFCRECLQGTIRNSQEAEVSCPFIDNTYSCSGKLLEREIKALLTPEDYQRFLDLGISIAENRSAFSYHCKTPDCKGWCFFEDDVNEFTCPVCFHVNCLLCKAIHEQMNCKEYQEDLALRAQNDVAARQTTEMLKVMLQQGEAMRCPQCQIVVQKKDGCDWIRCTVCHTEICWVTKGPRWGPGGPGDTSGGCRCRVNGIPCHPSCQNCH
UniProt Q9BV57: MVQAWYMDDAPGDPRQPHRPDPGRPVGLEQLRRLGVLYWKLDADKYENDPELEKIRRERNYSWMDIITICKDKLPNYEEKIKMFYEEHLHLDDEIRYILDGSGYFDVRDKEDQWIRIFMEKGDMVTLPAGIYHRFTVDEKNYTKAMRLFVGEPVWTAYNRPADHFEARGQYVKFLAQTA
UniProt Q9BV20: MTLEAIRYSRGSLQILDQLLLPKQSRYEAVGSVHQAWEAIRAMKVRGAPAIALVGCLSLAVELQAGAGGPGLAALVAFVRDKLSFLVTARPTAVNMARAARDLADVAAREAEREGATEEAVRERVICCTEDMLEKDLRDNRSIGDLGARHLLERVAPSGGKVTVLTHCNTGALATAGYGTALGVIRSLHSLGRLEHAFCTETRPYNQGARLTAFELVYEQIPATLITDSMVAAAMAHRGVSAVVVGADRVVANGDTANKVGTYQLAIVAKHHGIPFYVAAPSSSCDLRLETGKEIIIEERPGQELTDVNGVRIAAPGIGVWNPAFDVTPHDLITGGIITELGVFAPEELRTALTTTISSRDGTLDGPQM
UniProt Q9BZH6: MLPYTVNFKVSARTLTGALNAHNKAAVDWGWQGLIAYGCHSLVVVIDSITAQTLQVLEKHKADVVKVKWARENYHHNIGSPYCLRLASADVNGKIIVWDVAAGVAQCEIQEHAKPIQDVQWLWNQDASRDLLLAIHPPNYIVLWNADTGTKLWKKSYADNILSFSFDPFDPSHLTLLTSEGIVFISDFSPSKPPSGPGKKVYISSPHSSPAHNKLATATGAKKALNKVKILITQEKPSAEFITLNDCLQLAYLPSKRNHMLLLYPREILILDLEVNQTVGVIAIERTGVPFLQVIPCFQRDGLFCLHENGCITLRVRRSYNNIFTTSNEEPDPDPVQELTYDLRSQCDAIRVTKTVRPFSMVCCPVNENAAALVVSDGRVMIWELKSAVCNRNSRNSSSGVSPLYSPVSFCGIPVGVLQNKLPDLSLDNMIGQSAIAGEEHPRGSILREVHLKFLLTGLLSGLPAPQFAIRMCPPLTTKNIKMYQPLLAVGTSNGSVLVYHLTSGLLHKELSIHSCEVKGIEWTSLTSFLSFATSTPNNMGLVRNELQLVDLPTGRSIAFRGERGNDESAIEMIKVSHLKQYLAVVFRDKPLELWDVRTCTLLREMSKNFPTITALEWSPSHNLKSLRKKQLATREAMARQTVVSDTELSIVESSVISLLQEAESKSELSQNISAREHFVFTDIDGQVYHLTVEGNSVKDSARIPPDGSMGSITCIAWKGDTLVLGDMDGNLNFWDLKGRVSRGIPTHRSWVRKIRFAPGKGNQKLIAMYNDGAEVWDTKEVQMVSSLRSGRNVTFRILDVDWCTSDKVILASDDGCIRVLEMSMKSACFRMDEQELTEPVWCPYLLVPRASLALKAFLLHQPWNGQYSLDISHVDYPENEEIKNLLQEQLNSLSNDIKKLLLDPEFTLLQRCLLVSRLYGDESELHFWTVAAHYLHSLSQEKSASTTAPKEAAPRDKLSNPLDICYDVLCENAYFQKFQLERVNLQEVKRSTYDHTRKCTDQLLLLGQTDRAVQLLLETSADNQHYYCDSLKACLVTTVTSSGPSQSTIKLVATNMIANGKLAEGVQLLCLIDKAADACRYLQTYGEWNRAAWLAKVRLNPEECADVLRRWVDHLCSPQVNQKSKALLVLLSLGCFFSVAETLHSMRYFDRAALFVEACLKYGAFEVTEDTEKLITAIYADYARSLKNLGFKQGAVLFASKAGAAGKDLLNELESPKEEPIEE
UniProt Q99638: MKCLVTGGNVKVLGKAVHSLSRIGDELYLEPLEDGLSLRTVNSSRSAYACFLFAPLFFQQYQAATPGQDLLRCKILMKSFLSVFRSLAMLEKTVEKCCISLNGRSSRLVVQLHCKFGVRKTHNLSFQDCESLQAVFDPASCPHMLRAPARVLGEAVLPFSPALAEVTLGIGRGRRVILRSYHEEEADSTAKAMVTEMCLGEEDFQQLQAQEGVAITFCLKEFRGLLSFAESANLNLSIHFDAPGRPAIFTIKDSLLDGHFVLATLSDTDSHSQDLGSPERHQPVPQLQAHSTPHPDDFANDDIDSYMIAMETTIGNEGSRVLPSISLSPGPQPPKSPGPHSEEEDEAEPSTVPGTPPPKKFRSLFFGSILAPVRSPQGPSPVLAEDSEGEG
UniProt Q9BQA1, whole entry: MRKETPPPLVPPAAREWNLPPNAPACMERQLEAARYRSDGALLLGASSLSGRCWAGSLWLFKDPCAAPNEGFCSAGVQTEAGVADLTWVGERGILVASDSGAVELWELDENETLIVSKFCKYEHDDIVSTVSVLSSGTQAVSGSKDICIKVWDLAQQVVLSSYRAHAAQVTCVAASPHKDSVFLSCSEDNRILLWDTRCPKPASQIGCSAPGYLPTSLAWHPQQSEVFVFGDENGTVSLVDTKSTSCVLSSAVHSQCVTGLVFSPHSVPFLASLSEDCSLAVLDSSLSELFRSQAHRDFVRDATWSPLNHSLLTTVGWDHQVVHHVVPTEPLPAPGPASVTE
UniProt Q99426: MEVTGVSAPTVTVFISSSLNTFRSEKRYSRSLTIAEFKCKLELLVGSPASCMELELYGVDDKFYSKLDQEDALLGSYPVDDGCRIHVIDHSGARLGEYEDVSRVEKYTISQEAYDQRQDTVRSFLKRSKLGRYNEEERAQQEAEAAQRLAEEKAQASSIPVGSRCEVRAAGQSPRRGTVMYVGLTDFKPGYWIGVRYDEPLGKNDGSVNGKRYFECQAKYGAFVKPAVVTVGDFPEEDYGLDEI
UniProt Q99575: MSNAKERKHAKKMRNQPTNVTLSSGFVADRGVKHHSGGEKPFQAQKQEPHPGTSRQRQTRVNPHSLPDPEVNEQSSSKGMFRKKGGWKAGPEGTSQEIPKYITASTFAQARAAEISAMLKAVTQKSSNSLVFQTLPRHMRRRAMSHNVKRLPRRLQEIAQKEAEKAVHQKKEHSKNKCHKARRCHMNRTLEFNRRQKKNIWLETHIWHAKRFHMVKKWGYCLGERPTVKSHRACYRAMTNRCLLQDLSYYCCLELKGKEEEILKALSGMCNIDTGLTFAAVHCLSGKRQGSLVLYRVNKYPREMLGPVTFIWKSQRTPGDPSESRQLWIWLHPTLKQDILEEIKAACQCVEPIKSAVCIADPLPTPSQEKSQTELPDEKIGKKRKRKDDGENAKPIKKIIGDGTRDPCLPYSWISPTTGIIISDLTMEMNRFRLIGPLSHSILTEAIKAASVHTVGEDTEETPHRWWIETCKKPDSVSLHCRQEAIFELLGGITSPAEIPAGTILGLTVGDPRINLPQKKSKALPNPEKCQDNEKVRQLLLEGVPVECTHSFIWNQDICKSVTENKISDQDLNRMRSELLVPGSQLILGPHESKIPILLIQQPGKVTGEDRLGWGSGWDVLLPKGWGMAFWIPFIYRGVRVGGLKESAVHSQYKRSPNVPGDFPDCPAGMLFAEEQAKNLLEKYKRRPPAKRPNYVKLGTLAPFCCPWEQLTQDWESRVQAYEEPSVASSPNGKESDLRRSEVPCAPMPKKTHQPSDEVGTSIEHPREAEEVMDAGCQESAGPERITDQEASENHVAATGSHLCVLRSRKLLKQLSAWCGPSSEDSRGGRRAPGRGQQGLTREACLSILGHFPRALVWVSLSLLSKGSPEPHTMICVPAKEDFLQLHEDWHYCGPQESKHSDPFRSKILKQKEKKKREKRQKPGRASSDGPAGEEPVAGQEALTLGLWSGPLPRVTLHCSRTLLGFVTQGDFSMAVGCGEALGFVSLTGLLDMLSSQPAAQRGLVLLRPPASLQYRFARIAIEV

Target	NP40-soluble protein abundance (concentration: 1mM)	NP40-soluble protein abundance (concentration: 2mM)	NP40-soluble protein abundance (concentration: 4mM)	NP40-soluble protein abundance (concentration: 6mM)	NP40-soluble protein abundance (concentration: 8mM)	NP40-soluble protein abundance (concentration: 10mM)
MRPL9 (UniProt Q9BYD2)	1.05 ± 0.078	0.913 ± 0.035	0.899 ± 0.092	0.879 ± 0.24	0.931 ± 0.16	0.866 ± 0.15
GINS4 (UniProt Q9BRT9)	0.981 ± 0.035	0.978 ± 0.019	0.976 ± 0.028	1.01 ± 0.033	0.954 ± 0.031	0.9494 ± 0.0073
HDHD3 (UniProt Q9BSH5)	1.03 ± 0.074	1.02 ± 0.084	0.9699 ± 0.0012	0.925 ± 0.088	1.04 ± 0.038	0.992 ± 0.019
MRPL1 (UniProt Q9BYD6)	0.957 ± 0.052	0.939 ± 0.05	0.902 ± 0.082	0.88 ± 0.077	0.901 ± 0.098	0.875 ± 0.079
SEC62 (UniProt Q99442)	0.925 ± 0.063	0.939 ± 0.024	0.906 ± 0.041	0.923 ± 0.032	0.901 ± 0.037	0.924 ± 0.035
PSMG3 (UniProt Q9BT73)	0.95 ± 0.022	0.968 ± 0.033	0.9633 ± 0.0071	0.863 ± 0.11	0.896 ± 0.047	0.994 ± 0.015
UniProt Q9BUK6 and related entries	1.01 ± 0.053	0.994 ± 0.023	0.957 ± 0.029	0.966 ± 0.049	0.982 ± 0.017	1.01 ± 0.012
UniProt Q99708-3|I6L8A6 and related entries	0.952 ± 0.045	0.982 ± 0.042	0.984 ± 0.021	0.921 ± 0.095	0.89 ± 0.086	0.925 ± 0.082
UniProt Q9BW85	0.911 ± 0.098	0.924 ± 0.074	0.923 ± 0.096	1 ± 0.11	0.888 ± 0.027	0.908 ± 0.0094
UBXN6 (UniProt Q9BZV1)	0.957 ± 0.019	0.932 ± 0.039	0.933 ± 0.022	0.934 ± 0.047	0.906 ± 0.019	0.926 ± 0.038
ITPA (UniProt Q9BY32)	1.04 ± 0.079	1.03 ± 0.035	1.03 ± 0.062	1.04 ± 0.073	0.975 ± 0.059	0.983 ± 0.069
UniProt Q9BY43 and related entries	1.04 ± 0.011	1.034 ± 0.0097	1.02 ± 0.11	0.979 ± 0.12	1.02 ± 0.045	1.01 ± 0.058
UniProt Q9BQ24 and related entries	1.1 ± 0.18	1.07 ± 0.069	1.05 ± 0.075	0.995 ± 0.13	1.04 ± 0.03	1.02 ± 0.026
COPS4 (UniProt Q9BT78)	0.977 ± 0.048	0.9759 ± 0.0091	0.936 ± 0.01	0.964 ± 0.038	0.977 ± 0.021	0.923 ± 0.043
SH3GL1 (UniProt Q99961)	0.984 ± 0.055	0.976 ± 0.042	0.997 ± 0.041	1 ± 0.034	0.978 ± 0.035	0.94 ± 0.022
UniProt Q99538 and related entries	0.924 ± 0.018	0.968 ± 0.036	0.903 ± 0.021	0.929 ± 0.03	0.902 ± 0.076	0.905 ± 0.028
UniProt Q9BRJ7 and related entries	0.99 ± 0.078	1.04 ± 0.016	1.02 ± 0.065	0.935 ± 0.09	0.988 ± 0.038	1.03 ± 0.038
UniProt Q9BRR6 and related entries	1.11 ± 0.085	1.26 ± 0.23	1.1 ± 0.12	1.13 ± 0.12	1.06 ± 0.19	1.05 ± 0.18
VPS25 (UniProt Q9BRG1)	1.01 ± 0.1	1.02 ± 0.08	0.97 ± 0.093	0.964 ± 0.12	0.998 ± 0.11	0.959 ± 0.075
GRWD1 (UniProt Q9BQ67)	1.03 ± 0.038	1.03 ± 0.038	1.05 ± 0.03	1.1 ± 0.053	1.13 ± 0.02	1.14 ± 0.023

Target	NP40-soluble protein abundance (concentration: 1mM)	NP40-soluble protein abundance (concentration: 2mM)	NP40-soluble protein abundance (concentration: 4mM)	NP40-soluble protein abundance (concentration: 6mM)	NP40-soluble protein abundance (concentration: 8mM)	NP40-soluble protein abundance (concentration: 10mM)
UniProt Q9BSI4-2	1.29 ± 0.06	1.32 ± 0.13	1.49 ± 0.059	1.43 ± 0.14	1.51 ± 0.12	1.56 ± 0.2
UniProt Q96TA2 and related entries	1.06 ± 0.056	1.05 ± 0.032	1.06 ± 0.037	1.06 ± 0.016	1.098 ± 0.0099	1.08 ± 0.04
NABP2 (UniProt Q9BQ15)	0.991 ± 0.15	0.945 ± 0.13	0.98 ± 0.22	1.13 ± 0.17	0.942 ± 0.056	1.12 ± 0.035
UniProt Q9BZ29-4|A0A088AWN3|A0A0A0MRA7|A0A0A0MSY4|Q9BZ29 and related entries	1.08 ± 0.13	0.978 ± 0.021	0.973 ± 0.076	1.07 ± 0.24	1.07 ± 0.011	1.02 ± 0.074
NAPG (UniProt Q99747)	0.939 ± 0.077	0.938 ± 0.039	0.907 ± 0.043	0.981 ± 0.061	0.914 ± 0.043	0.876 ± 0.036
UniProt Q9BTD8 and related entries	1.11 ± 0.023	1.13 ± 0.011	1.18 ± 0.038	1.2 ± 0.023	1.2 ± 0.077	1.24 ± 0.019
UniProt Q99871 and related entries	0.965 ± 0.066	0.973 ± 0.058	0.975 ± 0.021	0.973 ± 0.05	0.949 ± 0.035	0.924 ± 0.065
SGPP1 (UniProt Q9BX95)	0.928 ± 0.11	0.936 ± 0.056	0.972 ± 0.058	1 ± 0.046	0.936 ± 0.035	0.951 ± 0.058
UniProt Q9BWU1	0.918 ± 0.13	0.917 ± 0.1	0.936 ± 0.12	0.971 ± 0.12	0.946 ± 0.089	0.958 ± 0.097
CPPED1 (UniProt Q9BRF8)	1.01 ± 0.082	0.981 ± 0.073	0.973 ± 0.04	0.926 ± 0.1	0.959 ± 0.076	0.945 ± 0.059
UniProt Q9BRP8-2|Q9BRP8	0.967 ± 0.14	0.975 ± 0.14	0.979 ± 0.12	1.05 ± 0.14	0.946 ± 0.1	0.912 ± 0.14
UniProt Q9BXS5 and related entries	1.03 ± 0.12	0.97 ± 0.088	0.938 ± 0.09	0.898 ± 0.16	0.953 ± 0.056	0.969 ± 0.072
GPATCH1 (UniProt Q9BRR8)	0.957 ± 0.069	0.99 ± 0.13	1.08 ± 0.024	1.19 ± 0.16	1.07 ± 0.17	1.17 ± 0.067
UniProt Q99714 and related entries	0.961 ± 0.036	0.979 ± 0.017	0.952 ± 0.011	0.982 ± 0.031	0.934 ± 0.035	0.9415 ± 0.0078
RBCK1 (UniProt Q9BYM8)	0.969 ± 0.042	0.95 ± 0.028	0.962 ± 0.035	0.959 ± 0.047	0.946 ± 0.05	0.95 ± 0.04
ADI1 (UniProt Q9BV57)	0.975 ± 0.047	0.977 ± 0.062	0.937 ± 0.055	0.936 ± 0.08	0.948 ± 0.087	0.933 ± 0.065
ACBD6 (UniProt Q9BR61)	0.978 ± 0.02	1.01 ± 0.06	1.01 ± 0.07	0.999 ± 0.033	0.982 ± 0.091	0.93 ± 0.048
CABLES2 (UniProt Q9BTV7)	0.952 ± 0.19	1.02 ± 0.12	1.05 ± 0.17	0.947 ± 0.21	0.957 ± 0.22	0.995 ± 0.25
RAB11FIP5 (UniProt Q9BXF6)	1.17 ± 0.12	1.29 ± 0.12	1.26 ± 0.1	1.2 ± 0.13	1.22 ± 0.16	1.18 ± 0.16
TM9SF2 (UniProt Q99805)	1.07 ± 0.16	1.04 ± 0.087	1.06 ± 0.13	0.96 ± 0.12	1.06 ± 0.085	1 ± 0.033

Three records drawn at random from the list so far, as already listed:
Target	NP40-soluble protein abundance (concentration: 1mM)	NP40-soluble protein abundance (concentration: 2mM)	NP40-soluble protein abundance (concentration: 4mM)	NP40-soluble protein abundance (concentration: 6mM)	NP40-soluble protein abundance (concentration: 8mM)	NP40-soluble protein abundance (concentration: 10mM)
UniProt Q9BTD8 and related entries	1.11 ± 0.023	1.13 ± 0.011	1.18 ± 0.038	1.2 ± 0.023	1.2 ± 0.077	1.24 ± 0.019
UniProt Q9BRP8-2|Q9BRP8	0.967 ± 0.14	0.975 ± 0.14	0.979 ± 0.12	1.05 ± 0.14	0.946 ± 0.1	0.912 ± 0.14
ADI1 (UniProt Q9BV57)	0.975 ± 0.047	0.977 ± 0.062	0.937 ± 0.055	0.936 ± 0.08	0.948 ± 0.087	0.933 ± 0.065

Next results follow.

Target	NP40-soluble protein abundance (concentration: 1mM)	NP40-soluble protein abundance (concentration: 2mM)	NP40-soluble protein abundance (concentration: 4mM)	NP40-soluble protein abundance (concentration: 6mM)	NP40-soluble protein abundance (concentration: 8mM)	NP40-soluble protein abundance (concentration: 10mM)
PAPOLG (UniProt Q9BWT3)	1.125 ± 0.011	1.154 ± 0.011	1.25 ± 0.089	1.3 ± 0.065	1.28 ± 0.076	1.26 ± 0.015
UniProt Q9BWE0 and related entries	0.964 ± 0.033	0.964 ± 0.029	1.04 ± 0.028	0.972 ± 0.071	0.969 ± 0.067	1.02 ± 0.025
UniProt Q9BXW9 and related entries	0.922 ± 0.027	0.919 ± 0.019	0.9 ± 0.043	0.906 ± 0.037	0.886 ± 0.048	0.929 ± 0.023
CNPY3 (UniProt Q9BT09)	0.907 ± 0.056	0.892 ± 0.031	0.854 ± 0.019	0.922 ± 0.021	0.857 ± 0.041	0.815 ± 0.063
MRI1 (UniProt Q9BV20)	0.982 ± 0.039	0.992 ± 0.05	0.986 ± 0.023	0.964 ± 0.059	0.956 ± 0.029	0.967 ± 0.06
SH3GL2 (UniProt Q99962)	1.03 ± 0.022	1.01 ± 0.029	1.03 ± 0.051	1.01 ± 0.052	0.97 ± 0.016	0.961 ± 0.099
UniProt Q9BT25 and related entries	0.976 ± 0.035	0.918 ± 0.028	0.935 ± 0.033	0.951 ± 0.061	0.9181 ± 0.0017	0.92 ± 0.051
WDR11 (UniProt Q9BZH6)	0.92 ± 0.097	0.949 ± 0.047	0.96 ± 0.017	0.886 ± 0.017	0.971 ± 0.039	1.03 ± 0.065
FSD1 (UniProt Q9BTV5)	1.01 ± 0.078	1.02 ± 0.049	1.03 ± 0.086	1.02 ± 0.093	1.02 ± 0.07	1 ± 0.031
UniProt Q99638 and related entries	1.06 ± 0.085	0.965 ± 0.23	1.06 ± 0.063	1.08 ± 0.069	1.03 ± 0.24	0.997 ± 0.09
WDR77 (UniProt Q9BQA1)	1.07 ± 0.073	1.03 ± 0.047	1.06 ± 0.073	1.03 ± 0.04	1.05 ± 0.017	1.02 ± 0.049
UniProt Q99447 and related entries	1.03 ± 0.098	1.01 ± 0.089	0.966 ± 0.083	0.955 ± 0.1	1.01 ± 0.079	0.983 ± 0.043
DIDO1 (UniProt Q9BTC0)	1.16 ± 0.073	1.2 ± 0.053	1.24 ± 0.031	1.27 ± 0.072	1.23 ± 0.043	1.31 ± 0.038
DCTN5 (UniProt Q9BTE1)	0.98 ± 0.05	0.997 ± 0.091	0.976 ± 0.06	0.958 ± 0.074	0.981 ± 0.079	0.995 ± 0.079
TBCB (UniProt Q99426)	0.943 ± 0.049	0.959 ± 0.019	0.928 ± 0.017	0.959 ± 0.049	0.923 ± 0.024	0.905 ± 0.02
C1orf50 (UniProt Q9BV19)	1.07 ± 0.04	1.01 ± 0.026	1.02 ± 0.011	0.989 ± 0.03	0.989 ± 0.025	0.999 ± 0.04
UniProt Q99719 and related entries	1.05 ± 0.024	1.054 ± 0.01	1.05 ± 0.043	1.04 ± 0.025	1.04 ± 0.047	1.01 ± 0.014
DESI2 (UniProt Q9BSY9)	0.958 ± 0.043	0.957 ± 0.014	0.964 ± 0.011	0.93061 ± 0.00028	0.924 ± 0.098	0.9507 ± 0.0074
UniProt Q9BU76 and related entries	1.05 ± 0.049	1.04 ± 0.058	1.07 ± 0.1	1.15 ± 0.046	1.15 ± 0.12	1.18 ± 0.077
POP1 (UniProt Q99575)	0.994 ± 0.038	1.01 ± 0.035	1.05 ± 0.015	1.06 ± 0.098	1.11 ± 0.05	1.11 ± 0.067

Reference: the supplement of paper PMC6411743
